Measured values published in publication PMC7862700.
The other results are listed elsewhere or left out. The source does not settle which construct or isoform was used.

biological target: T1, ELF2 (UniProt Q15723); experiment: DAPPL (digital affinity profiling via proximity ligation, sequencing); settings: 10 mM Tris-HCl pH 7.5, 50 mM NaCl, 1 mM DTT, 4% glycerol, room temperature, 30 min; GST-TFs on glutathione beads, 16-mer random dsDNA library, 0.1% …; high values mean tight binding; double strand, one strand shown; scale: fold enrichment (6-mer frequency, TF over GST control)
T1 sequence: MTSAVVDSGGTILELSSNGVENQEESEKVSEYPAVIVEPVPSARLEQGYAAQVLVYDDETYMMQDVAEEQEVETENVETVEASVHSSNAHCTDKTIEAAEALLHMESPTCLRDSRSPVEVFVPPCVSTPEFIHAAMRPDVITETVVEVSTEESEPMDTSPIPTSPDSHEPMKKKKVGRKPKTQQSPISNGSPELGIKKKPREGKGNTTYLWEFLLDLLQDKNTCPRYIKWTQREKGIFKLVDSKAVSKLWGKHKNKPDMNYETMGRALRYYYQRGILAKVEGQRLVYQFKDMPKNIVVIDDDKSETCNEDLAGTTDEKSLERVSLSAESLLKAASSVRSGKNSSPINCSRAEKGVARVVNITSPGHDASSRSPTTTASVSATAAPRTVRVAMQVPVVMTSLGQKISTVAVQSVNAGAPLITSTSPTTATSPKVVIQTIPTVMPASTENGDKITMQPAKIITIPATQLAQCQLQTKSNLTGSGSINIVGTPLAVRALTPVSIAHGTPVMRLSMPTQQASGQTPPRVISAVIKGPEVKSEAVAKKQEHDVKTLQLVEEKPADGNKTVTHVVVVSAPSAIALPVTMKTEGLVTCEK

| Sequence | binding signal |
| --- | --- |
| GACATT | 1.16 |
| CGTTTC | 1.99 |
| ACTCCA | 1.11 |
| CATTTT | 1.17 |
| GAAGAT | 0.976 |
| CTCGGG | 0.964 |
| TCCATT | 1.24 |
| AATCAG | 1.14 |
| CCACTG | 1.16 |
| TCTTGG | 1.25 |
| CCTAAG | 1.08 |
| AATAGG | 1.23 |
| TCTGCG | 1.12 |
| AACCCG | 1.85 |
| CGTAAA | 1.09 |
| GCCCGA | 0.931 |
| ATGCTC | 1.26 |
| CTTAAA | 1.15 |
| TTGAGA | 0.842 |
| GAAACT | 1.31 |

| Sequence | binding signal |
| --- | --- |
| CGCGAT | 1.03 |
| TGTCCT | 1.48 |
| TAGTTA | 1.12 |
| TGGGTT | 1 |
| ATTGTA | 1.14 |
| CTTGGC | 1.05 |
| AATCTC | 1.23 |
| ACCTTA | 1.19 |
| CACTAG | 0.962 |
| ATTCGC | 1.16 |
| CCTATA | 1.37 |
| CCCTCT | 1.3 |
| GGAATA | 0.986 |
| ATGATG | 1.26 |
| CAGGAA | 2.39 |
| CTGGCT | 1.2 |
| TTCGCG | 1.1 |
| TCCAGA | 0.828 |
| CTCTCC | 1.26 |
| CTATTG | 1.3 |

Single entries from the results shown.
Entry for CCTATA under binding signal: 1.37
Entry for TGTCCT under binding signal: 1.48
